PubChem BioAssay AID1259307 – Sanger Institute – 2017
Here is one part, drawn at random, of 794 reagents. 15 of all reagents (1.9%) were called active. 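Calls reflect lethality without any drug; synergy scores did not enter the calls.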 Further read-outs or replicates are left out here. Not stated in the record: the amount of reagent, the time to read-out.

Screen: 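siRNA kinome screen seeking kinases whose loss harms SW620 cells alone or with drugs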 (primary screen)
Cell system: SW620 colorectal cancer cells
Reagent: siRNA pool against human genes
Treatment: anchor drugs BYL719 at 1 µM, cetuximab at 5 µg/ml or trametinib at 10 nM, each beside a DMSO vehicle arm
Measured: 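Cell viability in each well relative to non-targeting controls, averaged over replicates and turned into a robust z-score; synergy with BYL719 (1 µM), cetuximab (5 µg/ml), trametinib (10 nM) versus DMSO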
Scale: viability robust z-score, no drug: higher = more viable cells
Call rule: 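a knock-down counts as lethal alone if its drug-free robust viability z-score is lower than -3, regardless of synergy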
Calls: active = essential (lethal alone); inactive = no change alone

The opening 5 records, ahead of the listing:
| gene | viability robust z-score, no drug | Call |
| --- | --- | --- |
| MAP3K19 (mitogen-activated protein kinase kinase kinase 19) | 0.269 | inactive |
| CAMK2B (calcium/calmodulin dependent protein kinase II beta) | 0.0304 | inactive |
| LMTK2 (lemur tail kinase 2) | 0.433 | inactive |
| DGUOK (deoxyguanosine kinase) | -0.635 | inactive |
| CDKL1 (cyclin dependent kinase like 1) | -0.494 | inactive |

Main list, repeating the preview:
| gene | viability robust z-score, no drug | Call |
| --- | --- | --- |
| MAP3K19 (mitogen-activated protein kinase kinase kinase 19) | 0.269 | inactive |
| CAMK2B (calcium/calmodulin dependent protein kinase II beta) | 0.0304 | inactive |
| LMTK2 (lemur tail kinase 2) | 0.433 | inactive |
| DGUOK (deoxyguanosine kinase) | -0.635 | inactive |
| CDKL1 (cyclin dependent kinase like 1) | -0.494 | inactive |
| EFNA5 (ephrin A5) | 0.736 | inactive |
| ITSN1 (intersectin 1) | -2.14 | inactive |
| CSNK1E (casein kinase 1 epsilon) | 0.736 | inactive |
| IRAK4 (interleukin 1 receptor associated kinase 4) | 0.736 | inactive |
| FXR1 (FMR1 autosomal homolog 1) | 0.736 | inactive |
| CSNK1G3 (casein kinase 1 gamma 3) | 0.736 | inactive |
| PKDCC (protein kinase domain containing, cytoplasmic) | -0.709 | inactive |
| ADPGK (ADP dependent glucokinase) | -2.68 | inactive |
| SBK1 (SH3 domain binding kinase 1) | 0.333 | inactive |
| MAP3K15 (mitogen-activated protein kinase kinase kinase 15) | 0.736 | inactive |
| PRPS1 (phosphoribosyl pyrophosphate synthetase 1) | -0.298 | inactive |
| FGR (FGR proto-oncogene, Src family tyrosine kinase) | -0.683 | inactive |
| PAK6 (p21 (RAC1) activated kinase 6) | -0.707 | inactive |
| GRK2 (G protein-coupled receptor kinase 2) | 0.127 | inactive |
| MAP2K3 (mitogen-activated protein kinase kinase 3) | 0.736 | inactive |
| RBKS (ribokinase) | 0.736 | inactive |
| TAOK1 (TAO kinase 1) | 0.59 | inactive |
| STK35 (serine/threonine kinase 35) | 0.736 | inactive |
| JAK3 (Janus kinase 3) | 0.736 | inactive |
| MAP2K5 (mitogen-activated protein kinase kinase 5) | 0.736 | inactive |
| GRK5 (G protein-coupled receptor kinase 5) | 0.659 | inactive |
| EIF2AK2 (eukaryotic translation initiation factor 2 alpha kinase 2) | 0.0383 | inactive |
| PTK2 (protein tyrosine kinase 2) | 0.471 | inactive |
| TRIO (trio Rho guanine nucleotide exchange factor) | -1.96 | inactive |
| PHKB (phosphorylase kinase regulatory subunit beta) | 0.0375 | inactive |
| PANK1 (pantothenate kinase 1) | 0.736 | inactive |
| PRKAA2 (protein kinase AMP-activated catalytic subunit alpha 2) | -0.149 | inactive |
| IPPK (inositol-pentakisphosphate 2-kinase) | -2.05 | inactive |
| NEK6 (NIMA related kinase 6) | 0.736 | inactive |
| HCK (HCK proto-oncogene, Src family tyrosine kinase) | 0.627 | inactive |
| PRKAA1 (protein kinase AMP-activated catalytic subunit alpha 1) | 0.736 | inactive |
| GALK1 (galactokinase 1) | -1.55 | inactive |
| KALRN (kalirin RhoGEF kinase) | 0.325 | inactive |
| AK1 (adenylate kinase 1) | 0.353 | inactive |
| ROCK2 (Rho associated coiled-coil containing protein kinase 2) | -0.188 | inactive |
| HK2 (hexokinase 2) | -1.86 | inactive |
| MAP3K6 (mitogen-activated protein kinase kinase kinase 6) | -0.19 | inactive |
| PRKCG (protein kinase C gamma) | -0.149 | inactive |
| GATA3 (GATA binding protein 3) | 0.614 | inactive |
| KRAS (KRas proto-oncogene, GTPase) | -3.43 | active |
| HIPK3 (homeodomain interacting protein kinase 3) | -0.25 | inactive |
| SMAD4 (SMAD family member 4) | 0.44 | inactive |
| ITPKA (inositol-trisphosphate 3-kinase A) | 0.736 | inactive |
| IGF2R (insulin like growth factor 2 receptor) | 0.736 | inactive |
| PFKM (phosphofructokinase, muscle) | 0.354 | inactive |
